The record followed here is patent publication US20130108636A1.

Amino acid sequences for entries named in this document (tags omitted). Residues count along the entry.
UniProt P02769, residues 25-607: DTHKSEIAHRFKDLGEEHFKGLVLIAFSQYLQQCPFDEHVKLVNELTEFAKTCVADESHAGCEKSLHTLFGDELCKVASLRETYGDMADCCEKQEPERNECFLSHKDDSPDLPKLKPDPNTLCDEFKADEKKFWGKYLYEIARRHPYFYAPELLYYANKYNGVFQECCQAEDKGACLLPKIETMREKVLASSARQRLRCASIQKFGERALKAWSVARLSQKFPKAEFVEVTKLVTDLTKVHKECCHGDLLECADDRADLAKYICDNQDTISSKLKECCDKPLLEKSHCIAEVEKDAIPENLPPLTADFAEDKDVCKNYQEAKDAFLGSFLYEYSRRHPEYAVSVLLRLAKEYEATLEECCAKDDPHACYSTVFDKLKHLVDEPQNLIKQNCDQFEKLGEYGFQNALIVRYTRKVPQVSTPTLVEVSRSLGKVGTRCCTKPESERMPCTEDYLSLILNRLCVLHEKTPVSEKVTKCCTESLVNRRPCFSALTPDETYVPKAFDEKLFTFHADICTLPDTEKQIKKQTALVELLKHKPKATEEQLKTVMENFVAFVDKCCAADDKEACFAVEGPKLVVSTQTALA

No constants are given. Whether binding was seen depends on the method and setting.

B1: m36.1 (VHH)
VHH: QVQLVQSGGGLVQPGGSLRLSCAASTFDFSDYEMSWVREAPGKGLEWIGEINDSGNTIYNPSLKNRVTISRDNSKNTLYLQMNTLRAEDTAIYYCAIYGGNSGGEYWGQGTLVTVSS
B2: m36.4 (VHH)
VHH: QVQLVQSGGGLVQPGGSLRLSCAASAFDFSDYEMSWVREAPGKGLEWIGEINDSGNTIYNPSLKSRVTISRDNSKNTLYLQMNTLRAEDTAIYYCAIYGGNSGGEYWGQGTLVTVSS
B3: m36.5 (VHH)
VHH: QVQLVQSGGGLVQPGGSLRLSCAASAFDFSDYEMSWVREAPGKGLEWIGEINDSGNTIYNPSLKSRVTISRDNSKNTLYLQMNTLSAEDTAIYYCAIYGGNSGGEYWGQGTLVTVSS
B4: m36.2 (VHH)
VHH: QVQLVQSGGGLIQPGGSLRLSCAASAFDFSDYEMSWVRQDPGKGLEWIGEINDRGNTIYNPSLKSRVTISRDNSKNTLYLQMNTLRAEDTAIYYCAIYGGNSGGEYWGQGTLVTVSS

This assay concerns the target BSA (Bos taurus) (UniProt P02769). Briefly: ELISA, OD 450 nm, BSA as unrelated antigen.
Consider B1, for which the binding entry was “no binding (tested: about 6700 nM)”.

Consider B2, for which the binding result was “no binding (tested: about 6700 nM)”.

In the case of B3, the binding entry is reported as “no binding (tested: about 6700 nM)”.

With B4, the binding result is listed as “no binding (tested: about 6700 nM)”.
